Results on one molecule are retold here after publication PMC4306915.

No constants are given. Whether binding was seen depends on the method and setting. Some results given as binding are weak or reduced against the parent protein; the word gives no strength.

The target in the assay is T1, Wnt5a (UniProt P41221).
T1 sequence: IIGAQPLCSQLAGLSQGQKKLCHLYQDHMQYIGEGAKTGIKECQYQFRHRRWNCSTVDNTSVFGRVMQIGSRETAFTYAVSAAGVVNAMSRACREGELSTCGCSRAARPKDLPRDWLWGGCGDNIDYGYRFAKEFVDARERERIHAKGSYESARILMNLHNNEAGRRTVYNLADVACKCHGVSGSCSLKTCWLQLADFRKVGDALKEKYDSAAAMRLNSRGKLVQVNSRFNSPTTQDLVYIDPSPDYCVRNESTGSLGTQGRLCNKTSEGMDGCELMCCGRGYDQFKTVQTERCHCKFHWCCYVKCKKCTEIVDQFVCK
Description: ELISA; 384 well plate coated with 1 μg/ml purified Fz2CRD-IgG (or 2 μg/ml control-IgG); 500 ng/ml Wnt5a added with 250 μg/ml anti-GST antibody (control Ab) or mAb5A16 or 10 μg/ml purified sFRP2 for 2 h at room temperature; detected with biotinylated monoclonal anti-Wnt5a antibody; both purified. (In general: An ELISA detects its analyte on a solid surface through an enzyme-linked reagent.)

B1: secreted frizzled-related protein2 (sFRP2) (protein, UniProt Q96HF1 25-295)
chain: LFLFGQPDFSYKRSNCKPIPANLQLCHGIEYQNMRLPNLLGHETMKEVLEQAGAWIPLVMKQCHPDTKKFLCSLFAPVCLDDLDETIQPCHSLCVQVKDRCAPVMSAFGFPWPDMLECDRFPQDNDLCIPLASSDHLLPATEEAPKVCEACKNKNDDDNDIMETLCKNDFALKIKVKEITYINRDTKIILETKSKTIYKLNGVSERDLKKSVLWLKDSLQCTCEEMNDINAPYLVMGQKQGGELVITSVKRWQKGQREFKRISRSIRKLQC
Take B1: the binding entry was “binds”.
